# Experimental data: the supplement of paper PMC10032668
# Amino acid sequences for entries named in this document (tags omitted).
# APOA1, P02647, UniProt P02647, whole entry: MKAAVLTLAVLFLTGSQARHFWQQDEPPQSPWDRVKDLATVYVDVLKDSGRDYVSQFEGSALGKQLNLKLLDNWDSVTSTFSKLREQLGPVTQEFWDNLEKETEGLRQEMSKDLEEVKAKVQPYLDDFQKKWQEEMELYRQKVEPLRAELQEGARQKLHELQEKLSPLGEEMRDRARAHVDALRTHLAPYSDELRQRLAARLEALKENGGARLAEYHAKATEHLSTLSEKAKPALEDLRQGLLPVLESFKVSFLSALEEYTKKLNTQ
# COX7A2, P14406, UniProt P14406, whole entry: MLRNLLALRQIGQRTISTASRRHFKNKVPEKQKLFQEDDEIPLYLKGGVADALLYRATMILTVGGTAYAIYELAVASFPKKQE
# EIF2B5, Q13144, UniProt Q13144, whole entry: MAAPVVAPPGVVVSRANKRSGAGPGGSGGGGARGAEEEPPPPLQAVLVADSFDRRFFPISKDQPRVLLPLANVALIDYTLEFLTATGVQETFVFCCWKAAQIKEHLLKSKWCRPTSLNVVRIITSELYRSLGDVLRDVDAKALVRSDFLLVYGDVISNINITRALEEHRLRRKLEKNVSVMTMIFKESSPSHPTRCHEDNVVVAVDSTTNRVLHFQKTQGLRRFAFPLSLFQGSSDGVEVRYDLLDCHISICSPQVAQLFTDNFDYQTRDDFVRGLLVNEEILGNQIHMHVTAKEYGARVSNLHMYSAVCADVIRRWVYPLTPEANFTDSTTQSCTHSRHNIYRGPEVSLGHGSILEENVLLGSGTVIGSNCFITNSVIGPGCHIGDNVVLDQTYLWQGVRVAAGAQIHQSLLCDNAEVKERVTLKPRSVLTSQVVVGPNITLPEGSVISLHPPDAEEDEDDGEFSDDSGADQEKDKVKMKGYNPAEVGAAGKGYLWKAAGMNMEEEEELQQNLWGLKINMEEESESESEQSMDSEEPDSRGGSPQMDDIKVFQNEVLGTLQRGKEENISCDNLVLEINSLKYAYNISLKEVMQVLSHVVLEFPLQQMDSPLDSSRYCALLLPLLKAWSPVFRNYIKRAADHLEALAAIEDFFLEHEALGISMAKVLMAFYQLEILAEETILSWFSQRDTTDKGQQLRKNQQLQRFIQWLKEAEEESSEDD
# FLNB, O75369, UniProt O75369, whole entry: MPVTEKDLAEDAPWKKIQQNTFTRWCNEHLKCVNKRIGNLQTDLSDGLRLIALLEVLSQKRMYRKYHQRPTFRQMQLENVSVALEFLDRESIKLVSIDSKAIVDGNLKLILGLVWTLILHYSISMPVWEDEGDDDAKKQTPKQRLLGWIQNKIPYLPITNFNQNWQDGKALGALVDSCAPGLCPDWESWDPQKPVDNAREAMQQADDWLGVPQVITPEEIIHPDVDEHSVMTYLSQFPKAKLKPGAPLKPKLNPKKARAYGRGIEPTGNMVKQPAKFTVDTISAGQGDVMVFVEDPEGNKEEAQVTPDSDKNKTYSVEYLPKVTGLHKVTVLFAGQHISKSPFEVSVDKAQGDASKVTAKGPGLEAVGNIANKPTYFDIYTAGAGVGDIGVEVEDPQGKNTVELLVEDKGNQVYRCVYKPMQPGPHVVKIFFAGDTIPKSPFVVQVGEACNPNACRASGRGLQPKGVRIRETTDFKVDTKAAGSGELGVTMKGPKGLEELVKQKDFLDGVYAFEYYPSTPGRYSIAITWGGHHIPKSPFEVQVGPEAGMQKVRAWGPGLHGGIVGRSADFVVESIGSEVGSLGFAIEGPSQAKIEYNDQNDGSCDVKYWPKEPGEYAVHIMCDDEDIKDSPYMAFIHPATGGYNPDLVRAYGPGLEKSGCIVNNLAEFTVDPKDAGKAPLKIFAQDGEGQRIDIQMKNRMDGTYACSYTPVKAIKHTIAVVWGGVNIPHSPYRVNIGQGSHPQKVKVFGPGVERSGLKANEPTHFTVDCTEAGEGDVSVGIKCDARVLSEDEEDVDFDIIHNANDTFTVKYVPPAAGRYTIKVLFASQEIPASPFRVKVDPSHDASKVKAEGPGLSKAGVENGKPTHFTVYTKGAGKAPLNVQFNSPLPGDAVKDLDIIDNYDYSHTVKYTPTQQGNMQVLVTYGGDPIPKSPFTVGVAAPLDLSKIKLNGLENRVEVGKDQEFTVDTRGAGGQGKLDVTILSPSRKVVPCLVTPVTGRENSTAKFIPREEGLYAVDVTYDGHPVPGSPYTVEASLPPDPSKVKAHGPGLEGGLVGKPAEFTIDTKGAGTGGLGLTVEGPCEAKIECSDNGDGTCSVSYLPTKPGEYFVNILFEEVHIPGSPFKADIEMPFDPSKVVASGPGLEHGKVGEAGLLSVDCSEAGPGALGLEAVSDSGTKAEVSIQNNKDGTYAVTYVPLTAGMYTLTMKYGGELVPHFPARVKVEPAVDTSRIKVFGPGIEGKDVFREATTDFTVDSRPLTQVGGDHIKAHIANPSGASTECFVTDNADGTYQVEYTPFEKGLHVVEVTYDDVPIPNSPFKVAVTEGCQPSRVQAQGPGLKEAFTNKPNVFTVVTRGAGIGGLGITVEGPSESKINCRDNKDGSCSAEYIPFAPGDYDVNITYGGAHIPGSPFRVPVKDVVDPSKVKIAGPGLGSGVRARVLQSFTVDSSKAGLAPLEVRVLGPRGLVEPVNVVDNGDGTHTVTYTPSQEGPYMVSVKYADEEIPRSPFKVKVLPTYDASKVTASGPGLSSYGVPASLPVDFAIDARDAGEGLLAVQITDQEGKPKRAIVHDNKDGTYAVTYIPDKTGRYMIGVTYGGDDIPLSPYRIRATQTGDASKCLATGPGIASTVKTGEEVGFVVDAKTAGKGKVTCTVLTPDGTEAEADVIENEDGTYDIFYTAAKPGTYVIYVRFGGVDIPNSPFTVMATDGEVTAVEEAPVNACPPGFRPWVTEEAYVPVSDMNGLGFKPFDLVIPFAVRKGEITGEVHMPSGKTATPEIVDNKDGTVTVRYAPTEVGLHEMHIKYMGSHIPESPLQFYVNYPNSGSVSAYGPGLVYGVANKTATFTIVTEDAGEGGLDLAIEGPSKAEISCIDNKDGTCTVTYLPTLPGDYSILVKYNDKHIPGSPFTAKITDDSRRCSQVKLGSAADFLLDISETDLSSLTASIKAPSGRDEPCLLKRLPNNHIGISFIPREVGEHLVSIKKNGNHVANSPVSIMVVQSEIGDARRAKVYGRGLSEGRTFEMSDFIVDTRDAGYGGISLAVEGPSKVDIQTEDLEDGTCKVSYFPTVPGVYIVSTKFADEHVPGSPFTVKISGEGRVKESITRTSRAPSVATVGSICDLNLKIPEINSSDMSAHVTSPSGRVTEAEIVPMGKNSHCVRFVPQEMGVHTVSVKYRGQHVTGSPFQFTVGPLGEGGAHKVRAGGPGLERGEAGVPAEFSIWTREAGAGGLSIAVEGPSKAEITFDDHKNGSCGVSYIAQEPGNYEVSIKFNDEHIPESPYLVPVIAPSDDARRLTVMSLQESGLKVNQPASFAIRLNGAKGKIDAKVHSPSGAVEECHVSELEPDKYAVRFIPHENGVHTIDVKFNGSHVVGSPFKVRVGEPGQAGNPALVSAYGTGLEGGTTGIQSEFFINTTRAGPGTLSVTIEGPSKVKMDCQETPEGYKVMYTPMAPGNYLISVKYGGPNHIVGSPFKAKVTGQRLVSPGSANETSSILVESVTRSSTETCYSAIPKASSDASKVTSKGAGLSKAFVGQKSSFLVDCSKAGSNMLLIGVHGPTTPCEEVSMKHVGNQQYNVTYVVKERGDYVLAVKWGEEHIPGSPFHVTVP
# POLR1C, O15160, UniProt O15160, whole entry: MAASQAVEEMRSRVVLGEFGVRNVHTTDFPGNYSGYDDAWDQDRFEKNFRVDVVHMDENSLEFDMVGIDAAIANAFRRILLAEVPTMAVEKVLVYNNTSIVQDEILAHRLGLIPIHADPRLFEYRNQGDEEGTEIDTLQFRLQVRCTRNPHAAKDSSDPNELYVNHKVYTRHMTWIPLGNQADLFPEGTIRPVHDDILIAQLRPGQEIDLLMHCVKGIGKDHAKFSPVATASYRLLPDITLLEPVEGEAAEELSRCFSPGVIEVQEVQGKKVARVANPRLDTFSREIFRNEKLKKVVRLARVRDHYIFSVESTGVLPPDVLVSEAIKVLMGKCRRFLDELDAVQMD
# RFC4, P35249, UniProt P35249, whole entry: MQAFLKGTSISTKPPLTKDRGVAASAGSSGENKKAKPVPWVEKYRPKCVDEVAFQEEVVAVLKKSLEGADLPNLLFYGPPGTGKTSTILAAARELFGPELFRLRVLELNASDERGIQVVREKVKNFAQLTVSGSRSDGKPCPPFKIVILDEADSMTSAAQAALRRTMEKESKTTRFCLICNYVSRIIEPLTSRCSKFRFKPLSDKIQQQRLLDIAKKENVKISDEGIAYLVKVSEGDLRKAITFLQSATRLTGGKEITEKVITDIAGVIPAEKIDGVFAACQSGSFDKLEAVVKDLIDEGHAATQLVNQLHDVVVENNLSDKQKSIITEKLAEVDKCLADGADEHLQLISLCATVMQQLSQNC
# RFC5, P40937, UniProt P40937, whole entry: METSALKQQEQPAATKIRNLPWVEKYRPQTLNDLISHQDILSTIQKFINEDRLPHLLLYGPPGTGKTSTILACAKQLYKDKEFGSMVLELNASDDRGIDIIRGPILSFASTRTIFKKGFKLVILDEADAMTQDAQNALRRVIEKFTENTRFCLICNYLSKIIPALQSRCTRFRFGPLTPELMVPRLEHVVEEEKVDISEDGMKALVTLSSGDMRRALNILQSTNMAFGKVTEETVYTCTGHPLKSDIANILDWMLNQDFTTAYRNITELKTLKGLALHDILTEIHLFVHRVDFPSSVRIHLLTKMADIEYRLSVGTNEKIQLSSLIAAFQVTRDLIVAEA
# SMC4, Q9NTJ3, UniProt Q9NTJ3, whole entry: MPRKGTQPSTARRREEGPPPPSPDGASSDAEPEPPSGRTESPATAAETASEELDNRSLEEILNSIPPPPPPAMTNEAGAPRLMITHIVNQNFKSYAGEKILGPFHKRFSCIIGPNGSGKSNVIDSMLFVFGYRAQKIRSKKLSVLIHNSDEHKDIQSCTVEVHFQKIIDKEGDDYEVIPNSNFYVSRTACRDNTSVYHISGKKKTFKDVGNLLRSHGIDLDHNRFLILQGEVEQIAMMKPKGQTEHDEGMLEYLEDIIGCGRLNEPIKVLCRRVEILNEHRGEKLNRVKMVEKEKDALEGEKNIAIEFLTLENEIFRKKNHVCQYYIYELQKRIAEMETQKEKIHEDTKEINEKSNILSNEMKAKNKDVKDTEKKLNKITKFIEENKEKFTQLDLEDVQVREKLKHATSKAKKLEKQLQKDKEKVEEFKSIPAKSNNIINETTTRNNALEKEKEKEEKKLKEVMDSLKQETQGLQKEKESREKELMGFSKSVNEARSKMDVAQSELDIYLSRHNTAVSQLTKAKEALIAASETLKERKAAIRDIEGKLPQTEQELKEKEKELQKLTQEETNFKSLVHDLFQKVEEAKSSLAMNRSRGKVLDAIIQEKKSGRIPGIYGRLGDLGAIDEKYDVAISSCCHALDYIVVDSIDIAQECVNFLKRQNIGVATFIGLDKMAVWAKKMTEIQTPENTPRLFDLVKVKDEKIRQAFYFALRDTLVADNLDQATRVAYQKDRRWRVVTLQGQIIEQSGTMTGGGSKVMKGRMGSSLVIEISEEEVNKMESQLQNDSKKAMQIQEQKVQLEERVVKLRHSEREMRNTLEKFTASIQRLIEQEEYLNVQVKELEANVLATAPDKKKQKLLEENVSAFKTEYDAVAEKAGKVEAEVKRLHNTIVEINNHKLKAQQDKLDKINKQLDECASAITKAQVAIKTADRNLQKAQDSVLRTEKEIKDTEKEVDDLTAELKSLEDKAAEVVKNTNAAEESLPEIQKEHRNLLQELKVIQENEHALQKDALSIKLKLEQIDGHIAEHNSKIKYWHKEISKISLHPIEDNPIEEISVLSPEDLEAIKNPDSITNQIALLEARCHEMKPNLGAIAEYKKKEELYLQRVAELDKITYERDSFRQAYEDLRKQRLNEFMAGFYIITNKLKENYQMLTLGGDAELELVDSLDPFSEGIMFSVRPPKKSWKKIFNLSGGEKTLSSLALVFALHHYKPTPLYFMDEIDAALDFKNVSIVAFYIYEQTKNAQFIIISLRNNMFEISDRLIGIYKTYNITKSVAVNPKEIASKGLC
# SS18, Q15532, UniProt Q15532, whole entry: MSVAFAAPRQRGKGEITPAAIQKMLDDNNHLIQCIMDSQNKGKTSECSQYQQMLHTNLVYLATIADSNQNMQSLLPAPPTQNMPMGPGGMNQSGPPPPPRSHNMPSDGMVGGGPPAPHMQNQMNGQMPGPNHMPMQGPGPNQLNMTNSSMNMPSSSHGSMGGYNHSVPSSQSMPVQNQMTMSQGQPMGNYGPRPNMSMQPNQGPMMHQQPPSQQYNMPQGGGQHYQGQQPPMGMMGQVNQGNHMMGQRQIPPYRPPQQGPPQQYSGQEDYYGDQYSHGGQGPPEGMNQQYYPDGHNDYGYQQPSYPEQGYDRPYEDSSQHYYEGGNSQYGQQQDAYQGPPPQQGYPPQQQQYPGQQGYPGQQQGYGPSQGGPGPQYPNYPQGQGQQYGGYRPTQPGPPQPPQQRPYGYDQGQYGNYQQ
# TRAPPC2L, Q9UL33, UniProt Q9UL33, whole entry: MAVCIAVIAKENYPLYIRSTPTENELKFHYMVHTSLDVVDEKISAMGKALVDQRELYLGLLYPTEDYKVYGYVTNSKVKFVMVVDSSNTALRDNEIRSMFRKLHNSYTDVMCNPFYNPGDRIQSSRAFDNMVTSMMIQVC
# Some of the results follow. Only hits are listed; about a third recur on repeated control peptides.
# B1: RP11-432J24.5_2 (peptide)
# chain: PALCGHLISTGLGKQ
# How the values were obtained:
# Experiment in all cases: PRISMA enrichment of interactor (LFQ) in peptide spot vs all other peptide spots (log2 fold change); higher = stronger / more specific binding of the interactor to the peptide
# AKAP17A, Q02040 = molecular target: AKAP17A, Q02040
# Description: (§1)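 PRISMA: 15-aa overlapping tiles (offset 8 aa) of 60 microproteins, plus SOS1/GLUT1 control peptides, were spot-synthesized on cellulose membranes in triplicate. Membranes were incubated with benzonase-treated HEK293T lysate, and bound proteins were identified by LC-MS/MS with LFQ. Enrichment is the log2 fold change of each protein in one spot versus all other spots. Only interactors passing the significance cutoff are listed.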
# APOA1, P02647 = molecular target: APOA1, P02647
# Description: as §1
# ARHGAP19, Q14CB8 = molecular target: ARHGAP19, Q14CB8
# Description: as §1
# ASCC3, Q8N3C0 = molecular target: ASCC3, Q8N3C0
# Description: as §1
# AURKA, O14965 = molecular target: AURKA, O14965
# Description: as §1
# CC2D1A, Q6P1N0 = molecular target: CC2D1A, Q6P1N0
# Description: as §1
# CCT7, Q99832 = molecular target: CCT7, Q99832
# Description: as §1
# CIP2A, Q8TCG1 = molecular target: CIP2A, Q8TCG1
# Description: as §1
# COX7A2, P14406 = molecular target: COX7A2, P14406
# Description: as §1
# CREB1, P16220 = molecular target: CREB1, P16220
# Description: as §1
# [1] = substrate: CS, O75390
# Description: as §1
# CSNK1E, P49674 = molecular target: CSNK1E, P49674
# Description: as §1
# DDX18, Q9NVP1 = molecular target: DDX18, Q9NVP1
# Description: as §1
# DDX50, Q9BQ39 = molecular target: DDX50, Q9BQ39
# Description: as §1
# DOCK7, Q96N67 = molecular target: DOCK7, Q96N67
# Description: as §1
# DSG2, Q14126 = molecular target: DSG2, Q14126
# Description: as §1
# EIF2B3, Q9NR50 = molecular target: EIF2B3, Q9NR50
# Description: as §1
# EIF2B5, Q13144 = molecular target: EIF2B5, Q13144
# Description: as §1
# ENSA, O43768 = molecular target: ENSA, O43768
# Description: as §1
# EPB41L3, Q9Y2J2 = molecular target: EPB41L3, Q9Y2J2
# Description: as §1
# ERAL1, O75616 = molecular target: ERAL1, O75616
# Description: as §1
# FLNB, O75369 = molecular target: FLNB, O75369
# Description: as §1
# FUBP1, Q96AE4 = molecular target: FUBP1, Q96AE4
# Description: as §1
# GEMIN7, Q9H840 = molecular target: GEMIN7, Q9H840
# Description: as §1
# GLS, O94925 = molecular target: GLS, O94925
# Description: as §1
# GSTP1, P09211 = molecular target: GSTP1, P09211
# Description: as §1
# HNRNPDL, O14979 = molecular target: HNRNPDL, O14979
# Description: as §1
# HP, P00738 = molecular target: HP, P00738
# Description: as §1
# KLF16, Q9BXK1 = molecular target: KLF16, Q9BXK1
# Description: as §1
# MACF1 = molecular target: MACF1
# Description: as §1
# MAP7, Q14244 = molecular target: MAP7, Q14244
# Description: as §1
# MBNL1, Q9NR56 = molecular target: MBNL1, Q9NR56
# Description: as §1
# MED1, Q15648 = molecular target: MED1, Q15648
# Description: as §1
# MLEC, Q14165 = molecular target: MLEC, Q14165
# Description: as §1
# MRPL22, Q9NWU5 = molecular target: MRPL22, Q9NWU5
# Description: as §1
# MRPS28, Q9Y2Q9 = molecular target: MRPS28, Q9Y2Q9
# Description: as §1
# MRPS33, Q9Y291 = molecular target: MRPS33, Q9Y291
# Description: as §1
# NOB1, Q9ULX3 = molecular target: NOB1, Q9ULX3
# Description: as §1
# NOL11, Q9H8H0 = molecular target: NOL11, Q9H8H0
# Description: as §1
# NUSAP1, Q9BXS6 = molecular target: NUSAP1, Q9BXS6
# Description: as §1
# ORC5, O43913 = molecular target: ORC5, O43913
# Description: as §1
# POLR1C, O15160 = molecular target: POLR1C, O15160
# Description: as §1
# POLRMT, O00411 = molecular target: POLRMT, O00411
# Description: as §1
# POP7, O75817 = molecular target: POP7, O75817
# Description: as §1
# PPHLN1, Q8NEY8 = molecular target: PPHLN1, Q8NEY8
# Description: as §1
# PTBP3, O95758 = molecular target: PTBP3, O95758
# Description: as §1
# QKI, Q96PU8 = molecular target: QKI, Q96PU8
# Description: as §1
# RAB2A, P61019 = molecular target: RAB2A, P61019
# Description: as §1
# RFC4, P35249 = molecular target: RFC4, P35249
# Description: as §1
# RFC5, P40937 = molecular target: RFC5, P40937
# Description: as §1
# RIOK1, Q9BRS2 = molecular target: RIOK1, Q9BRS2
# Description: as §1
# SEPTIN9, Q9UHD8 = molecular target: SEPTIN9, Q9UHD8
# Description: as §1
# SERPINH1, P50454 = molecular target: SERPINH1, P50454
# Description: as §1
# SHMT2, P34897 = molecular target: SHMT2, P34897
# Description: as §1
# SMC4, Q9NTJ3 = molecular target: SMC4, Q9NTJ3
# Description: as §1
# SPATS2L, Q9NUQ6 = molecular target: SPATS2L, Q9NUQ6
# Description: as §1
# SPCS2, Q15005 = molecular target: SPCS2, Q15005
# Description: as §1
# SS18, Q15532 = molecular target: SS18, Q15532
# Description: as §1
# STAU1, O95793 = molecular target: STAU1, O95793
# Description: as §1
# STK24, Q9Y6E0 = molecular target: STK24, Q9Y6E0
# Description: as §1
# SUPT6H, Q7KZ85 = molecular target: SUPT6H, Q7KZ85
# Description: as §1
# TEX10, Q9NXF1 = molecular target: TEX10, Q9NXF1
# Description: as §1
# TP53I11, O14683 = molecular target: TP53I11, O14683
# Description: as §1
# TRAPPC2L, Q9UL33 = molecular target: TRAPPC2L, Q9UL33
# Description: as §1
# TRMT112, Q9UI30 = molecular target: TRMT112, Q9UI30
# Description: as §1
# UGDH, O60701 = molecular target: UGDH, O60701
# Description: as §1
# ZC2HC1A, Q96GY0 = molecular target: ZC2HC1A, Q96GY0
# Description: as §1
# ZNF146, Q15072 = molecular target: ZNF146, Q15072
# Description: as §1
binder,measurement,setting,value
B1,PRISMA enrichment of interactor (log2),"AKAP17A, Q02040",7.86
same,PRISMA enrichment of interactor (log2),"APOA1, P02647",4.1
same,PRISMA enrichment of interactor (log2),"ARHGAP19, Q14CB8",4.82
same,PRISMA enrichment of interactor (log2),"ASCC3, Q8N3C0",5.32
same,PRISMA enrichment of interactor (log2),"AURKA, O14965",4.76
same,PRISMA enrichment of interactor (log2),"CC2D1A, Q6P1N0",6.83
same,PRISMA enrichment of interactor (log2),"CCT7, Q99832",4.88
same,PRISMA enrichment of interactor (log2),"CIP2A, Q8TCG1",8.01
same,PRISMA enrichment of interactor (log2),"COX7A2, P14406",6.5
same,PRISMA enrichment of interactor (log2),"CREB1, P16220",4.26
same,PRISMA enrichment of interactor (log2),[1],4.02
same,PRISMA enrichment of interactor (log2),"CSNK1E, P49674",4.98
same,PRISMA enrichment of interactor (log2),"DDX18, Q9NVP1",4.77
same,PRISMA enrichment of interactor (log2),"DDX50, Q9BQ39",4.47
same,PRISMA enrichment of interactor (log2),"DOCK7, Q96N67",4.15
same,PRISMA enrichment of interactor (log2),"DSG2, Q14126",4.96
same,PRISMA enrichment of interactor (log2),"EIF2B3, Q9NR50",6.94
same,PRISMA enrichment of interactor (log2),"EIF2B5, Q13144",4.6
same,PRISMA enrichment of interactor (log2),"ENSA, O43768",6.59
same,PRISMA enrichment of interactor (log2),"EPB41L3, Q9Y2J2",4.74
same,PRISMA enrichment of interactor (log2),"ERAL1, O75616",5.8
same,PRISMA enrichment of interactor (log2),"FLNB, O75369",5.2
same,PRISMA enrichment of interactor (log2),"FUBP1, Q96AE4",5.69
same,PRISMA enrichment of interactor (log2),"GEMIN7, Q9H840",7.17
same,PRISMA enrichment of interactor (log2),"GLS, O94925",4.46
same,PRISMA enrichment of interactor (log2),"GSTP1, P09211",6.33
same,PRISMA enrichment of interactor (log2),"HNRNPDL, O14979",4.9
same,PRISMA enrichment of interactor (log2),"HP, P00738",9.78
same,PRISMA enrichment of interactor (log2),"KLF16, Q9BXK1",4.1
same,PRISMA enrichment of interactor (log2),MACF1,7.19
same,PRISMA enrichment of interactor (log2),"MAP7, Q14244",3.96
same,PRISMA enrichment of interactor (log2),"MBNL1, Q9NR56",4.26
same,PRISMA enrichment of interactor (log2),"MED1, Q15648",6.91
same,PRISMA enrichment of interactor (log2),"MLEC, Q14165",4.84
same,PRISMA enrichment of interactor (log2),"MRPL22, Q9NWU5",5.46
same,PRISMA enrichment of interactor (log2),"MRPS28, Q9Y2Q9",6.09
same,PRISMA enrichment of interactor (log2),"MRPS33, Q9Y291",4.05
same,PRISMA enrichment of interactor (log2),"NOB1, Q9ULX3",5.29
same,PRISMA enrichment of interactor (log2),"NOL11, Q9H8H0",4.31
same,PRISMA enrichment of interactor (log2),"NUSAP1, Q9BXS6",6.97
same,PRISMA enrichment of interactor (log2),"ORC5, O43913",6.99
same,PRISMA enrichment of interactor (log2),"POLR1C, O15160",5.95
same,PRISMA enrichment of interactor (log2),"POLRMT, O00411",5.82
same,PRISMA enrichment of interactor (log2),"POP7, O75817",3.69
same,PRISMA enrichment of interactor (log2),"PPHLN1, Q8NEY8",7.93
same,PRISMA enrichment of interactor (log2),"PTBP3, O95758",3.87
same,PRISMA enrichment of interactor (log2),"QKI, Q96PU8",6.78
same,PRISMA enrichment of interactor (log2),"RAB2A, P61019",4.32
same,PRISMA enrichment of interactor (log2),"RFC4, P35249",4.71
same,PRISMA enrichment of interactor (log2),"RFC5, P40937",4.83
same,PRISMA enrichment of interactor (log2),"RIOK1, Q9BRS2",5.52
same,PRISMA enrichment of interactor (log2),"SEPTIN9, Q9UHD8",4.23
same,PRISMA enrichment of interactor (log2),"SERPINH1, P50454",5.22
same,PRISMA enrichment of interactor (log2),"SHMT2, P34897",7.04
same,PRISMA enrichment of interactor (log2),"SMC4, Q9NTJ3",5.32
same,PRISMA enrichment of interactor (log2),"SPATS2L, Q9NUQ6",5.59
same,PRISMA enrichment of interactor (log2),"SPCS2, Q15005",6.7
same,PRISMA enrichment of interactor (log2),"SS18, Q15532",3.93
same,PRISMA enrichment of interactor (log2),"STAU1, O95793",5.14
same,PRISMA enrichment of interactor (log2),"STK24, Q9Y6E0",5.04
same,PRISMA enrichment of interactor (log2),"SUPT6H, Q7KZ85",7.55
same,PRISMA enrichment of interactor (log2),"TEX10, Q9NXF1",5.13
same,PRISMA enrichment of interactor (log2),"TP53I11, O14683",3.75
same,PRISMA enrichment of interactor (log2),"TRAPPC2L, Q9UL33",5.94
same,PRISMA enrichment of interactor (log2),"TRMT112, Q9UI30",6.21
same,PRISMA enrichment of interactor (log2),"UGDH, O60701",4.24
same,PRISMA enrichment of interactor (log2),"ZC2HC1A, Q96GY0",5.58
same,PRISMA enrichment of interactor (log2),"ZNF146, Q15072",4.88

# Reprinted at random: two entries already listed, in no set order.
binder,measurement,setting,value
B1,PRISMA enrichment of interactor (log2),"TEX10, Q9NXF1",5.13
same,PRISMA enrichment of interactor (log2),MACF1,7.19
